Here are results for one molecule from publication PMC8176713.

Chains of the proteins cited; added tags and fusions are not shown. Lines headed by an entry give the natural chain unless they say otherwise; changes in a name come on top.
UniProt P36142: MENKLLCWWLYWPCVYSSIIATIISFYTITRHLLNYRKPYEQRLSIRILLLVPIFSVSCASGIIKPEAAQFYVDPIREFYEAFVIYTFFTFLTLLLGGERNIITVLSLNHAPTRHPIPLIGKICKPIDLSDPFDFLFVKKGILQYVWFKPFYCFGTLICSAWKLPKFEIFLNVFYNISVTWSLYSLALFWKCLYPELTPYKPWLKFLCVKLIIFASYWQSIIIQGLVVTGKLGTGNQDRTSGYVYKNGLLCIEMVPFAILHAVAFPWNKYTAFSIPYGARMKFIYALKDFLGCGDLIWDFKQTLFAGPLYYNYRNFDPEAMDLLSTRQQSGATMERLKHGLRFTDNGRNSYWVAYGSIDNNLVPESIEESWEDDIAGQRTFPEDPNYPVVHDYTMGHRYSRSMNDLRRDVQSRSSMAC

The target in the assay is Hfl1-GFP with W371 mutated alone (S. cerevisiae) (UniProt P36142). The experiment in a line: co-IP; lysates of log phase yeast co-expressing Hfl1-GFP (TEF1 promoter) and 8 V5-Atg8 (own promoter) loaded on anti-GFP affinity resin, 4C, 2 h; lysis buffer 50 mM Tris-Cl, 150 mM NaCl, 10% glycerol, 1 mM EDTA, 1 mM PMSF, 0.2% NP-40, pH 7.4; immunoblot. (In general: A western blot detects proteins with antibodies after separation by electrophoresis.)

These are yes or no findings as the source states them, for the method shown. Binding seen in cells or lysates may run through a third protein. Binding calls can cover weak binding; strength is not graded here. Sequences can lack the tags named with a protein.

B1: 8 V5-Atg8 (protein, UniProt P38182 1-117)
chain: MKSTFKSEYPFEKRKAESERIADRFKNRIPVICEKAEKSDIPEIDKRKYLVPADLTVGQFVYVIRKRIMLPPEKAIFIFVNDTLPPTAALMSAIYQEHKDKDGFLYVTYSGENTFGR
Take B1: the binding result is recorded as “binds”.
